# PubChem BioAssay AID1259331, Drosophila RNAi Screening Center, 2017
# Screen: 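Genes whose knock-down changes cell survival under toxic zinc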 (primary screen)
# Cells: Drosophila S2R+ cells
# Knock-down reagent: long dsRNA against Drosophila genes
# Time to read-out: 5 days (4 days knock-down, then 1 day zinc)
# Challenge: zinc chloride at 15 mM final level for 1 day
# Detection: 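Total cellular ATP measured by luciferase luminescence as a viability proxy, turned into Z scores from three plate copies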
# Scale: mean Z score: higher = more ATP than other wells, better survival under zinc; ATP luminescence: higher = more ATP, more viable cells
# Rule for the call: 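Hit when the absolute Z score is greater than 1.5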
# Calls: active = hit, ATP up or down; inactive = not a hit
# Shown is one part, drawn at random, of about 3,100 reagents tested. 126 of them (4.1%) were called active. 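Calls are per reagent; zinc was so toxic that few knock-downs lowered ATP further, so most hits raise ATP.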 The raw values are shown without normalisation. The numbers tell different reagents against one gene apart. Names joined by + are all predicted targets of the reagent. Reagent sequences are not shown. Not stated in the record: the amount of reagent.
gene,reagent no.,mean Z score,"ATP luminescence, replicate 1","ATP luminescence, replicate 2",outcome
Kua (GeneID 35300),1,-0.58,38187,44274,inactive
CG13795 (GeneID 34049),1,-0.384,44788,40039,inactive
CG13795 (GeneID 34049),2,-0.231,50258,61232,inactive
Gr98d (GeneID 43309),1,0.023,67063,65783,inactive
Gr98d (GeneID 43309),2,-0.21,48835,52967,inactive
Lcch3 (GeneID 32554),1,-0.0556,44305,47360,inactive
robo1 (GeneID 37603),1,0.131,52624,37982,inactive
Vha100-3 (GeneID 246543),1,0.039,40451,44822,inactive
Vha100-3 (GeneID 246543),2,-0.433,57768,50961,inactive
Tsp42Ee (GeneID 35614),1,2.33,1.17e5,1.12e5,active
Tsp42Ee (GeneID 35614),2,-0.429,46160,63564,inactive
Tsp26A (GeneID 33838),1,-0.0283,48372,41805,inactive
Or35a (GeneID 34918),1,-0.494,44822,36799,inactive
Or35a (GeneID 34918),2,0.0451,56088,47514,inactive
Sln (GeneID 36263),1,0.735,99517,81213,inactive
Sln (GeneID 36263),2,-0.992,44977,41205,inactive
CG1907 (GeneID 43483),1,-0.32,37450,43965,inactive
CG7497 (GeneID 39966),1,0.343,62861,62158,inactive
CG7497 (GeneID 39966),2,-0.329,47840,44188,inactive
pHCl-1 (GeneID 39730),1,-0.07,64199,65593,inactive
pHCl-1 (GeneID 39730),2,-0.109,42422,43197,inactive
pHCl-1 (GeneID 39730),3,-0.585,62947,59414,inactive
Rh4 (GeneID 39887),1,0.081,65314,55796,inactive
CG34135 + CG11768,1,0.734,74781,81722,inactive
CG34135 + CG11768,2,-0.369,41846,36755,inactive
Osi13 (GeneID 40769),1,-0.00127,72643,64397,inactive
Or47b (GeneID 36212),1,-0.121,79137,70201,inactive
Or47b (GeneID 36212),2,-0.312,55042,55213,inactive
CG16700 (GeneID 32694),1,-0.295,42645,37188,inactive
CG16700 (GeneID 32694),2,-0.683,49092,48166,inactive
ClC-b (GeneID 36381),1,-0.178,64640,66223,inactive
Gr93c (GeneID 117471),1,-0.125,40622,56173,inactive
sit (GeneID 42658),1,0.0984,43022,56122,inactive
sit (GeneID 42658),2,0.139,60152,62638,inactive
CG7627 (GeneID 34148),1,-1.99,27490,28690,active
rg (GeneID 44531),1,-0.581,39214,38033,inactive
rg (GeneID 44531),2,0.52,74592,74747,inactive
rg (GeneID 44531),3,-0.279,49263,65056,inactive
rg (GeneID 44531),4,0.0681,50618,48612,inactive
rg (GeneID 44531),5,-0.194,41102,52775,inactive
kug (GeneID 40191),1,-0.566,27542,28313,inactive
Or23a (GeneID 33450),1,-0.256,42765,42662,inactive
Or23a (GeneID 33450),2,0.117,62776,62535,inactive
Sh (GeneID 32780),1,0.428,46657,52538,inactive
Sh (GeneID 32780),2,-0.222,28879,31673,inactive
Sh (GeneID 32780),3,1.01,72140,68434,inactive
Gfrl (GeneID 3346162),1,0.0109,40485,59530,inactive
Gfrl (GeneID 3346162),2,-0.28,49934,52315,inactive
CG30471 (GeneID 246633),1,-0.495,23543,30833,inactive
rho-4 (GeneID 32109),1,-0.749,35222,38897,inactive
rho-4 (GeneID 32109),2,0.533,73460,76359,inactive
AstA-R1 (GeneID 44126),1,0.131,63427,74913,inactive
AstA-R1 (GeneID 44126),2,-0.967,49761,50275,inactive
VhaPPA1-2 (GeneID 41806),1,-0.124,40340,54184,inactive
VhaPPA1-2 (GeneID 41806),2,-0.258,48474,58163,inactive
Or65a (GeneID 318011),1,-0.0972,43630,44085,inactive
Or65a (GeneID 318011),2,0.218,64508,61266,inactive

Individual results from the entries so far.
Entry for rg (GeneID 44531) #3 in “mean Z score”: -0.279
CG16700 (GeneID 32694) #1, mean Z score = -0.295
Or35a (GeneID 34918) #1, mean Z score → -0.494
rg (GeneID 44531) #4, ATP luminescence, replicate 1: 50618
Result of VhaPPA1-2 (GeneID 41806) #1 in “outcome”: inactive
kug (GeneID 40191), mean Z score → -0.566

Continued.
gene,reagent no.,mean Z score,"ATP luminescence, replicate 1","ATP luminescence, replicate 2",outcome
Gli (GeneID 34927),1,-0.13,51629,38153,inactive
Gli (GeneID 34927),2,-0.472,44981,54424,inactive
Cirl (GeneID 35846),1,0.421,48800,49640,inactive
Cirl (GeneID 35846),2,0.0736,62638,62415,inactive
CG32687 (GeneID 31980),1,-0.153,40228,44685,inactive
CG32687 (GeneID 31980),2,-0.988,48274,51098,inactive
CG32687 (GeneID 31980),3,-0.723,33764,41771,inactive
Ir94b (GeneID 318728),1,0.00714,46678,46955,inactive
CG10051 (GeneID 37222),1,5.54,1.92e5,1.81e5,active
CG10505 (GeneID 37428),1,-0.678,47561,49503,inactive
CG10505 (GeneID 37428),2,-0.466,42405,57347,inactive
Culd (GeneID 38946),1,-0.488,28980,27595,inactive
Culd (GeneID 38946),2,0.358,69144,63907,inactive
anchor (GeneID 39965),1,0.368,42851,32218,inactive
Gr59e (GeneID 37725),1,0.269,54819,40708,inactive
Gr59e (GeneID 37725),2,0.923,74386,75675,inactive
Sur (GeneID 34350),1,0.0654,57134,57151,inactive
Sur (GeneID 34350),2,-0.137,46640,60375,inactive
Calx (GeneID 42481),1,-0.25,38513,53704,inactive
Calx (GeneID 42481),2,-0.00631,95160,55910,inactive
Calx (GeneID 42481),3,-0.715,34673,47737,inactive
Calx (GeneID 42481),4,-0.238,56464,55436,inactive
CG17321 (GeneID 35144),1,0.0976,52247,35959,inactive
CG17321 (GeneID 35144),2,0.296,66034,65880,inactive
emp (GeneID 37999),1,-0.441,36953,38989,inactive
emp (GeneID 37999),2,-0.493,25760,31656,inactive
CG13101 (GeneID 34221),1,0.314,58608,62827,inactive
CG13101 (GeneID 34221),2,0.153,54219,55076,inactive
CG5326 (GeneID 42655),1,0.689,37999,67715,inactive
CG5326 (GeneID 42655),2,1.56,72517,79463,active
